Literature values in patent US20110104137A1, “ADJUNCTS AND COMPLEXES FOR IMPROVING HMG-CoA REDUCTASE INHIBITOR (STATIN) AND SELECTIVE PHOSPHODIESTERASE 5 INHIBITOR THERAPY” (ChronoRX LLC, an Alaska Limited Liability Company, priority 2009, published 2011).
At least one compound was matched to its structure with a doubt left.

Experiments:
[1] = single dose 200 mg or 500 mg
ADMA = details: in vivo

Row | SMILES | duration of penile rigidity [1] | effect on plasma ADMA (ADMA)
1 | C[C@H](O)[C@H](O)[C@H]1CNc2nc(N)[nH]c(=O)c2N1 [BH4, (6R)-L-erythro-5,6,7,8-tetrahydrobiopterin] | improved the duration of penile rigidity | 
2 | CC(C)n1c(/C=C/C(O)CC(O)CC(=O)O)c(-c2ccc(F)cc2)c2ccccc21 (stereo not drawn) [fluvastatin] |  | decrease in plasma ADMA
3 | CCC(C)(C)C(=O)O[C@H]1C[C@@H](C)C=C2C=C[C@H](C)[C@H](CC[C@@H]3C[C@@H](O)CC(=O)O3)[C@H]21 [simvastatin] |  | no effect
